Test results: the supplement of paper PMC7877785
± gives the uncertainty stated by the source. Many of these values have a large error.

Test: self-splicing fitness, log relative to wild type (ln ratio); higher = more splicing; Tetrahymena group I intron in knt gene, E. coli kanamycin selection, DiMSum; sequences stand for … in CUCUCU…GGAGGGAAAAGUUAUCAGGCAUGCACCUGGUAGCUAGUCUUUAAACCAAUAGAUUGCAUCGGUUUAAAAGGCAAGACCGUCAAAUUGCGGGAAAGGGGUCAACAGCCGUUCAGUACCAAGUCUCAGGGGAAACUUUGAGAUGGCCUUGCAAAGGGUAUGGUAAUAAGCUGACGGACAUGGUCCUAACCACGCAGCCAAGUCCUAAGUCAACAGAUCUUCUGUUGAUAUGGAUGCAGUUCACAGACUAAAUGUCGGUCGGGGAAGAUGUAUUCUUCUCAUAAGAUAUAGUCGGACCUCUCCUUAAUGGGAGCUAGCGGAUGAAGUGAUGCAACACUGGAGCCGCUGGGAACUAAUUUGUAUGCGAAAGUAUAUUGAUUAGUUUUGGAGUACUCGUGGUCG
Procedure, shortened: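 The eight P1ex-region nucleotides of an intron in the knt kanamycin-resistance gene on pET-22b(+) were all randomised and the library put into E. coli BL21(DE3). Six replicate transformations were grown overnight at 37°C or 30°C on LB agar with or without 25 μg/mL kanamycin, together with 100 μg/mL carbenicillin, 50 μM IPTG and 0.2% rhamnose. Colonies were pooled and amplicon-sequenced on an Illumina HiSeq 2500. Fitness from DiMSum is the error-weighted combination of wild-type-normalised replicate fold changes, kanamycin over none.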

| Sequence | self-splicing fitness (ln) (37 °C) | self-splicing fitness (ln) (30 °C) |
| --- | --- | --- |
| UUUAAGCAAUAUUACGCCAC | -0.687 ± 0.87 | – |
| UAUUAGCAAUAUUACGUUCU | -1.19 ± 0.17 | -2.64 ± 0.24 |
| GAGGAGCAAUAUUACGCUAG | – | -4.45 ± 0.73 |
| GUGUAGCAAUAUUACGUUCC | 0.694 ± 1.1 | -3.23 ± 1 |
| CUAAAGCAAUAUUACGCCUA | -1.9 ± 0.57 | – |
| CCGGAGCAAUAUUACGAGAA | -2.18 ± 0.67 | -2.09 ± 1.4 |
| UAUAAGCAAUAUUACGUAGC | – | -3.39 ± 0.61 |
| UCUUAGCAAUAUUACGAGAU | -2.73 ± 0.54 | -4.12 ± 1 |
| ACAGAGCAAUAUUACGUUGC | -3.62 ± 0.52 | – |
| AUAUAGCAAUAUUACGCGAA | – | -4.02 ± 0.52 |
| UUGGAGCAAUAUUACGAUUG | – | -4.45 ± 0.72 |
| UCUUAGCAAUAUUACGAGGC | -2.98 ± 1.1 | – |
| CGGGAGCAAUAUUACGAUGA | – | -3.57 ± 1 |
| UCGCAGCAAUAUUACGAGAU | -1.86 ± 0.25 | -3.01 ± 0.25 |
| CAUAAGCAAUAUUACGGAGA | – | -5.07 ± 0.51 |
| UAUAAGCAAUAUUACGUACG | -0.0322 ± 0.15 | -0.621 ± 0.13 |
| UUAGAGCAAUAUUACGGCUU | -1.79 ± 0.22 | -2.83 ± 0.21 |
| UCGGAGCAAUAUUACGCUGC | -2.89 ± 0.6 | – |
| ACACAGCAAUAUUACGACAU | -0.0836 ± 0.031 | -0.676 ± 0.01 |
| UUAUAGCAAUAUUACGGAAC | -1.71 ± 0.44 | -3.09 ± 0.36 |
| GCAUAGCAAUAUUACGAAGC | -0.744 ± 0.64 | -2.63 ± 0.54 |
| CGACAGCAAUAUUACGGCAC | -2.87 ± 0.53 | -2.39 ± 0.55 |
| UUAAAGCAAUAUUACGGAGA | 0.00703 ± 0.2 | -1.64 ± 0.15 |

| Sequence | self-splicing fitness (ln) (37 °C) | self-splicing fitness (ln) (30 °C) |
| --- | --- | --- |
| AUCGAGCAAUAUUACGCUAC | – | -4.08 ± 0.52 |
| UUCUAGCAAUAUUACGAUAG | – | -3.61 ± 0.52 |
| CUCCAGCAAUAUUACGCGUC | -2.53 ± 0.55 | – |
| UGAUAGCAAUAUUACGCGUC | -3.16 ± 0.53 | – |
| CCGCAGCAAUAUUACGCCGA | -1.42 ± 0.14 | -2.35 ± 0.19 |
| CUUUAGCAAUAUUACGAGCU | -2.13 ± 0.55 | -2.59 ± 0.55 |
| CCACAGCAAUAUUACGGACA | -2.51 ± 0.18 | -3.12 ± 0.21 |
| CGUCAGCAAUAUUACGGCUA | -0.751 ± 0.11 | -0.938 ± 0.11 |
| GUCUAGCAAUAUUACGCGGC | – | -3.99 ± 0.54 |
| UCAGAGCAAUAUUACGUUCC | -2.57 ± 0.49 | -3.84 ± 0.47 |
| CGGAAGCAAUAUUACGAGUA | – | -3.83 ± 0.6 |
| UGUCAGCAAUAUUACGCUAC | -3.12 ± 0.74 | -4.12 ± 1 |
| ACCGAGCAAUAUUACGCAUU | -1.78 ± 0.12 | -3.91 ± 0.17 |
| CUAUAGCAAUAUUACGAACC | -0.742 ± 0.65 | – |
| AAAGAGCAAUAUUACGAGCC | -1.11 ± 0.73 | – |
| GAAGAGCAAUAUUACGUCAG | -3.03 ± 0.35 | -3.58 ± 0.2 |
| AGGCAGCAAUAUUACGAACC | -1.03 ± 0.2 | -0.0701 ± 0.18 |
| UGGGAGCAAUAUUACGGCCC | -2.3 ± 1.1 | – |
| CGUCAGCAAUAUUACGCCUC | – | -3.25 ± 0.66 |
| GUAAAGCAAUAUUACGGCGU | 0.409 ± 0.11 | -0.369 ± 0.069 |
| CAUUAGCAAUAUUACGGACC | -3.81 ± 0.72 | -2.91 ± 0.61 |
| AGCAAGCAAUAUUACGAAGC | -3.24 ± 0.61 | – |
| GAGCAGCAAUAUUACGCACC | -1.82 ± 0.48 | -2.67 ± 0.39 |

Some of the entries above in another layout.
Sequence,self-splicing fitness (ln) (37 °C),self-splicing fitness (ln) (30 °C)
GUCUAGCAAUAUUACGCGGC,–,-3.99 ± 0.54
AAAGAGCAAUAUUACGAGCC,-1.11 ± 0.73,–
GAGCAGCAAUAUUACGCACC,-1.82 ± 0.48,-2.67 ± 0.39

Complete entries from above. Values in the order: self-splicing fitness (ln) (37 °C) | self-splicing fitness (ln) (30 °C)
CCACAGCAAUAUUACGGACA is listed with -2.51 ± 0.18 | -3.12 ± 0.21
AUCGAGCAAUAUUACGCUAC is listed with – | -4.08 ± 0.52

Continued.

| Sequence | self-splicing fitness (ln) (37 °C) | self-splicing fitness (ln) (30 °C) |
| --- | --- | --- |
| GAUGAGCAAUAUUACGCCGG | – | -3.73 ± 0.52 |
| UUUGAGCAAUAUUACGACCC | -1.99 ± 0.66 | -2.66 ± 1.1 |
| CAGAAGCAAUAUUACGGCCC | -2.43 ± 0.77 | – |
| CAAUAGCAAUAUUACGUUCC | -2.13 ± 0.35 | -2.6 ± 0.26 |
| UUGGAGCAAUAUUACGGCGA | -2.41 ± 0.76 | – |
| GCGUAGCAAUAUUACGAUGU | -1.15 ± 0.096 | -2.18 ± 0.068 |
| UCGGAGCAAUAUUACGGAAC | -1.79 ± 0.51 | – |
| GGCGAGCAAUAUUACGCGCG | – | -4.04 ± 0.52 |
| UGAUAGCAAUAUUACGUGGC | -1.38 ± 0.63 | – |
| UUGUAGCAAUAUUACGCAAU | -3.58 ± 0.6 | – |
| UCUGAGCAAUAUUACGAACU | -0.693 ± 0.71 | -3.23 ± 1 |
| UCAGAGCAAUAUUACGAACC | – | -3.11 ± 0.8 |
| ACUUAGCAAUAUUACGAGGC | -2.4 ± 0.77 | – |
| GCGAAGCAAUAUUACGCGGA | – | -2.79 ± 0.76 |
| GUUGAGCAAUAUUACGUCGU | -1.5 ± 0.55 | -3.25 ± 0.39 |
| CAAAAGCAAUAUUACGUACU | -0.995 ± 0.09 | -2.74 ± 0.11 |
| GUACAGCAAUAUUACGAUCG | -0.932 ± 0.16 | -1.67 ± 0.12 |
| GACUAGCAAUAUUACGAAAU | 0.651 ± 0.26 | -1.07 ± 0.16 |
| GUCUAGCAAUAUUACGACCC | 1.58 ± 0.58 | 0.062 ± 1.1 |
| AGCCAGCAAUAUUACGAUCA | – | -5.04 ± 0.72 |
| GACUAGCAAUAUUACGGACU | -0.611 ± 0.14 | -0.117 ± 0.11 |
| CGGGAGCAAUAUUACGGACU | -4.18 ± 1 | – |
| AGGAAGCAAUAUUACGAAGA | -1.61 ± 0.32 | -2.9 ± 0.34 |

Fetched one by one from the entries so far (3):

| Sequence | self-splicing fitness (ln) (37 °C) | self-splicing fitness (ln) (30 °C) |
| --- | --- | --- |
| GAGCAGCAAUAUUACGCACC | -1.82 ± 0.48 | -2.67 ± 0.39 |
| GUACAGCAAUAUUACGAUCG | -0.932 ± 0.16 | -1.67 ± 0.12 |
| UCGGAGCAAUAUUACGCUGC | -2.89 ± 0.6 | – |

Carrying on:

| Sequence | self-splicing fitness (ln) (37 °C) | self-splicing fitness (ln) (30 °C) |
| --- | --- | --- |
| CGUAAGCAAUAUUACGAAUA | -2.74 ± 0.61 | -3.71 ± 0.52 |
| AGUAAGCAAUAUUACGGAUG | -2.2 ± 0.26 | -3.1 ± 0.25 |
| GUGGAGCAAUAUUACGCAAA | -1.83 ± 0.25 | -2.28 ± 0.43 |
| AUAGAGCAAUAUUACGCAAC | – | -3.59 ± 0.77 |
| AAAGAGCAAUAUUACGACCC | -2.3 ± 1.1 | – |
| UAAUAGCAAUAUUACGUAAC | – | -4.03 ± 0.51 |
| CCCAAGCAAUAUUACGGAGG | -2.96 ± 0.53 | – |
| AGCCAGCAAUAUUACGUUAA | -2.59 ± 0.2 | -2.44 ± 0.17 |
| GGGUAGCAAUAUUACGUAUG | – | -4.31 ± 0.72 |
| UAGGAGCAAUAUUACGGCCC | -2.22 ± 0.56 | -3.09 ± 0.75 |
| UGUAAGCAAUAUUACGUACA | -0.557 ± 0.16 | -0.772 ± 0.098 |
| GCUAAGCAAUAUUACGCUGU | – | -3.88 ± 0.73 |
| UCGUAGCAAUAUUACGGCCU | -1.03 ± 0.5 | -2.57 ± 0.55 |
| GUAUAGCAAUAUUACGAAAC | – | -2.21 ± 0.79 |
| UCUGAGCAAUAUUACGUAAG | -0.863 ± 0.19 | -0.697 ± 0.11 |
| CAAGAGCAAUAUUACGGGAC | -2.75 ± 0.62 | -4.03 ± 0.61 |
| UGUCAGCAAUAUUACGGCUA | 0.327 ± 0.12 | 0.131 ± 0.094 |
| GAUGAGCAAUAUUACGCUGC | – | -3.88 ± 1.1 |
| UGGGAGCAAUAUUACGAGCC | -1.98 ± 1.1 | – |
| GCCUAGCAAUAUUACGGCCC | -0.535 ± 0.27 | -3.4 ± 0.48 |
| AGGAAGCAAUAUUACGUAGC | – | -1.27 ± 0.82 |
| GCGGAGCAAUAUUACGCGGU | -2.25 ± 0.78 | – |
| GUGUAGCAAUAUUACGUGGC | -3.08 ± 0.6 | – |

| Sequence | self-splicing fitness (ln) (37 °C) | self-splicing fitness (ln) (30 °C) |
| --- | --- | --- |
| UGGCAGCAAUAUUACGCGCU | – | -4.11 ± 0.61 |
| AUUCAGCAAUAUUACGUGGU | -0.786 ± 0.099 | -3 ± 0.12 |
| CGUGAGCAAUAUUACGUCGG | -0.606 ± 0.12 | -0.475 ± 0.11 |
| GCACAGCAAUAUUACGCGCC | -2.33 ± 0.56 | – |
| UCAGAGCAAUAUUACGAUAA | – | -4.5 ± 1 |
| CUCUAGCAAUAUUACGGCCA | -3.27 ± 0.6 | – |
| UUAGAGCAAUAUUACGGACC | – | -3.19 ± 0.82 |
| GGACAGCAAUAUUACGACAC | 0.167 ± 0.13 | -0.596 ± 0.1 |
| UGAGAGCAAUAUUACGGUCU | – | -3.48 ± 0.79 |
| CCGUAGCAAUAUUACGAUCC | -1.57 ± 0.54 | -3.31 ± 1 |
| CAGGAGCAAUAUUACGCAUU | – | -3.04 ± 0.62 |
| GUGAAGCAAUAUUACGUUUG | -1.85 ± 0.12 | -2.25 ± 0.09 |
| UGGUAGCAAUAUUACGAGUC | – | -4.2 ± 1 |
| UCGGAGCAAUAUUACGUGGC | – | -3.51 ± 0.73 |
| GGGGAGCAAUAUUACGAUCA | -0.807 ± 0.19 | -1.45 ± 0.18 |
| CGGGAGCAAUAUUACGAGGG | -2.23 ± 0.5 | – |
| GUUAAGCAAUAUUACGGCAG | -2.76 ± 0.53 | -2.99 ± 0.61 |
| CAUGAGCAAUAUUACGACCA | -2.39 ± 1.1 | -1.78 ± 0.73 |
| GUCAAGCAAUAUUACGCCAA | – | -2.79 ± 1.2 |
| UUCAAGCAAUAUUACGAUUU | -1.12 ± 0.17 | -3.24 ± 0.21 |
| UUACAGCAAUAUUACGAAGC | – | -2.95 ± 0.54 |
| UGGGAGCAAUAUUACGGAGA | -3.15 ± 0.73 | -3.75 ± 0.52 |
| AGCUAGCAAUAUUACGUUGG | -2.03 ± 0.18 | -3.61 ± 0.19 |
